Measured values: PubChem BioAssay AID493014 (National Center for Advancing Translational Sciences (NCATS), 2011)
The list shows a part of the results. Shown are side measurements of this screen, not its main read-out; they come without a call. Compounds called inactive in the main read-out are mostly missing here. Words in brackets tell the shape of the fitted curve; partial curves, single points and poor fits give uncertain potencies.

Experiment: qHTS Assay to Find Inhibitors of Chronic Active B-Cell Receptor Signaling
Settings: ABC-DLBCL IkBa-CBG/CBR reporter, luminescence ratio (green luciferase fused to IkBa over red control in TMD8 lymphoma cells), 4 h
Method in brief: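 Doxycycline induced both beetle luciferases in TMD8 lymphoma cells; IKK-driven degradation limits the IkappaBalpha-fused green signal, while red luminescence normalises for cell number and nonspecific effects. Compounds tested up to 46 uM, 4 hrs.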

[1] = measured here: CBR red luminescence, cell number
[2] = measured here: IkBa-CBG green luminescence

| Compound | AC50 [1] | AC50 [2] |
| --- | --- | --- |
| Cn1c(=NC(=O)COc2ccccc2)sc2cccc(F)c21 | 0.251 µM [rising, full curve, poor fit] |  |
| O=C(CSc1nnnn1C1CC2C=CC1C2)Nc1ccc(C(=O)O)cc1 (centres undefined) | 20.6 µM [rising, partial curve, poor fit] |  |
| O=C(N/N=C/c1cn(Cc2cccc(F)c2)c2ccccc12)c1cc(O)cc(O)c1 | 4.47 µM [falling, full curve] |  |
| C=CCn1c(SCc2c(C)noc2C)nc2ccccc2c1=O | 20.6 µM [rising, single point] | 18.4 µM [falling, partial curve] |
| Cc1cccc(NC(=O)[C@H](C)NC(=O)[C@@H]2Cc3ccccc3CN2C(=O)OC(C)(C)C)c1 | 35.5 µM [falling, single point] |  |
| CCC1N=C(SC)NC(C)=C1C(=O)c1ccccc1 (centres undefined) | 0.316 µM [rising, full curve, poor fit] |  |
| CCCCN(C)C(=O)c1cn(CC)c2ccc(S(=O)(=O)N(C)C)cc2c1=O | 6.51 µM [rising, single point] |  |
| Cc1cc(N/C=C\C(=O)c2ccc(Cl)c(Cl)c2)no1 | 3.98 µM [rising, full curve] |  |
| Nc1ccc(-c2nc3ccccc3o2)cc1 | 11.2 µM [falling, single point] |  |
| CCOC(=O)C1=C(C(F)(F)F)Nc2ncnn2C1c1cc(OC)ccc1OC (centres undefined) | 14.6 µM [rising, partial curve, poor fit] |  |
| N#Cc1ccc(C(=O)Nn2cnnc2)cc1 | 3.55 µM [rising, partial curve, poor fit] |  |
| COC(=O)c1ccc(C2C=C(c3ccc(Cl)cc3)Nc3nc4ccccc4n32)cc1 (centres undefined) | 7.08 µM [falling, full curve] |  |
| COCCOC(=O)C1=C(C)OC(N)=C(C#N)C1c1cc2cccc(C)c2nc1Cl (centres undefined) | 3.55 µM [falling, partial curve, poor fit] | 2.82 µM [falling, single point] |
| Oc1ccc(-c2onc(C(F)(F)F)c2-c2cscn2)c(O)c1 | 20.6 µM [falling, partial curve, poor fit] |  |
| COc1ccc(C2=C/C(=C\c3ccccc3OC(C)=O)C(=O)O2)cc1 | 6.31 µM [rising, single point] |  |
| COc1ccccc1C(=O)NNC(=O)C(=O)NCc1ccccc1 | 10 µM [falling, partial curve] |  |
| CCOC(=O)N1CCC(N(CCN(C)C)C(=S)Nc2cccc(OC)c2)CC1 | 3.16 µM [falling, single point] |  |

Quoted from the listing for reference:

| Compound | AC50 [1] | AC50 [2] |
| --- | --- | --- |
| O=C(N/N=C/c1cn(Cc2cccc(F)c2)c2ccccc12)c1cc(O)cc(O)c1 | 4.47 µM [falling, full curve] |  |
| C=CCn1c(SCc2c(C)noc2C)nc2ccccc2c1=O | 20.6 µM [rising, single point] | 18.4 µM [falling, partial curve] |
